Test results: patent publication US20170189376A1, “BUTYROYLOXYMETHYL DIETHYL PHOSPHATE COMPOUNDS AND USES THEREOF” (MOR RESEARCH APPLICATIONS LTD., priority 2016, published 2017)
Where two headings read alike, the source gives them in different places.

Tests used:
[1] = system: Hut78 cells; assay: cells; type: cell-based; conditions: Homo sapiens
[2] = system: MyLa cells; assay: MTT-based viability assay, MyLa cells; conditions: Homo sapiens, 72 h
[3] = system: Hut78 cells; assay: MTT-based viability assay, Hut78 cells; conditions: Homo sapiens, HuT78, 72 h
[4] = system: Sezary syndrome Peripheral blood lymphocytes SPBL; assay: MTT-based viability assay, Sezary PBL (SPBL); conditions: Homo sapiens, Lymphocyte, 72 h
[5] = system: NPBL; assay: MTT-based viability assay, normal PBL (NPBL); conditions: Homo sapiens, 72 h
[6] = read-out: IC50 single treatment (HDACI)

O=C(CCCCCCC(=O)Nc1ccccc1)NO [SAHA, Suberoylanilide hydroxamic acid, reference compound]
IC50 ([1]; HuT78, 24 h, read-out: IC50 Long exposure): 2400 ± 80 nM | IC50 ([1]; HuT78, read-out: IC50 Short exposure): 41000 ± 1000 nM | IC50 [2]: 4300 ± 180 nM | IC50 [3]: 700 ± 50 nM | IC50 [3, 6]: 500 nM | IC50 [4]: 2960 nM | IC50 [4, 6]: 2960 ± 740 nM | IC50 [5]: 2100 ± 100 nM | IC50 [5, 6]: 2840 ± 650 nM
